From paper PMC6039525
Results are given in words; binding and its absence hold for the method and conditions named. Binding seen in cells or lysates may run through a third protein. Some entries that bind do so weakly or less than the wild type.

Protein sequences, listed by entry. Tags and fused reporters are not part of them.
UniProt P27782: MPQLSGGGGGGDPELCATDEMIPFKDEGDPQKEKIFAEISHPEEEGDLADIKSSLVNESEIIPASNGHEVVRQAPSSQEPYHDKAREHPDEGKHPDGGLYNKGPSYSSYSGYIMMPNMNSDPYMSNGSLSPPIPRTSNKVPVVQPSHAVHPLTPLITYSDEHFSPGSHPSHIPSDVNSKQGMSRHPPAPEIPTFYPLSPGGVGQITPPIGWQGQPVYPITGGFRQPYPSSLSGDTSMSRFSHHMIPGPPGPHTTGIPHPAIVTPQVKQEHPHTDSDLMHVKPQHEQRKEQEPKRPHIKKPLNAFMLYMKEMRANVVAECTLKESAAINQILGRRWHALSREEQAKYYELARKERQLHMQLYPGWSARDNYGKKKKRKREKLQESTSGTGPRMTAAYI
UniProt Q9EPK5: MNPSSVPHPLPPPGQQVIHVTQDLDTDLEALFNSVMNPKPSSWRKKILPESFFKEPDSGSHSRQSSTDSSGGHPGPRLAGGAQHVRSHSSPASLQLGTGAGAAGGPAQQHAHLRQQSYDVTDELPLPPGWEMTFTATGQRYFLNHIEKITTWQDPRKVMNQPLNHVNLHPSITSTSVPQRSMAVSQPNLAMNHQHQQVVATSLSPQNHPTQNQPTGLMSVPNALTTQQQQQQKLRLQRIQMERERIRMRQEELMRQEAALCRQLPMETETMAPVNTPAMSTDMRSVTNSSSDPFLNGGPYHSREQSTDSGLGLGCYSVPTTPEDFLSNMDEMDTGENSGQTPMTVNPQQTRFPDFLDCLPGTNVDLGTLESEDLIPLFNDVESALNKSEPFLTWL

How the values were obtained:
[1] = molecular target: endogenous LEF1 of primary osteoblasts (mouse (endogenous in primary osteoblasts)) (UniProt P27782); experiment: co-IP; lysates of primary osteoblasts (endogenous proteins) immunoprecipitated with control IgG or anti-LEF1 antibody; immunoblotting with anti-TAZ antibody
[2] = molecular target: lymphoid enhancer-binding factor 1 (LEF1) (UniProt P27782); experiment: co-IP; 293FT cells transfected with expression vectors, incubated 3 days, lysed (20 mM HEPES pH 7.4, 150 mM NaCl, 1% Triton X-100); immunoprecipitation with anti-LEF1 antibody, Dynabeads Protein G or A; immunoblotting with anti-TAZ or anti-Flag

Row | binding [1] | binding [2] | Substance
1 | binds | – | endogenous TAZ of primary osteoblasts (from UniProt Q9EPK5 1-395)
2 | – | binds | transcriptional co-activator with PDZ-binding motif (TAZ) (from UniProt Q9EPK5 1-395)
